Data published in paper PMC10991417.
These are yes or no findings as the source states them, for the method shown.

T1: NOT2 (Drosophila CCR4-NOT complex subunit) (Drosophila) (UniProt Q94547)
T1 sequence: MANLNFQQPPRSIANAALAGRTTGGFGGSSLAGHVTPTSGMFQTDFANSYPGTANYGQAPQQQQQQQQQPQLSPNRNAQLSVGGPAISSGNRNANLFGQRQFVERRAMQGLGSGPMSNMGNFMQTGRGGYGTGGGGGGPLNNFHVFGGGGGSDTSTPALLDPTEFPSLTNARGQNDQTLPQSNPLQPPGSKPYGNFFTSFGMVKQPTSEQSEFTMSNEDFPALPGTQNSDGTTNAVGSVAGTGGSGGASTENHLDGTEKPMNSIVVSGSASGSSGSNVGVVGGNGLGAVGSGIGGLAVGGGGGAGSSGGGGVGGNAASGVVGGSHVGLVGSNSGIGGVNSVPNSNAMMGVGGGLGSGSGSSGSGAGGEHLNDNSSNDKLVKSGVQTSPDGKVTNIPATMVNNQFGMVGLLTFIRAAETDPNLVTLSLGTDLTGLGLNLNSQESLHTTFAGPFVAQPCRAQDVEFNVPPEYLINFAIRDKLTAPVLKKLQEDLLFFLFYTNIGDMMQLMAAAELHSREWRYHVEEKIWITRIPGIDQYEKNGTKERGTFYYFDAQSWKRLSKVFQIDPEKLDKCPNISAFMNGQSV


Experiments:
[1] = target: T1, NOT2 (Drosophila CCR4-NOT complex subunit) (Drosophila); assay: ReLo relocalization assay (live-cell confocal fluorescence microscopy); pairwise; membrane anchor (PH or OST4) and which partner was anchored are not given; S2R+ cells cotransfected with two plasmids, imaged after 48 h at 25 °C
[2] = target: T1, NOT2 (Drosophila CCR4-NOT complex subunit) (Drosophila); assay: ReLo relocalization assay (live-cell confocal fluorescence microscopy); pairwise; one partner anchored to the plasma membrane by the PH domain of rat PLCδ1 and fused to mCherry, the other fused to EGFP/mEGFP; S2R+ cells cotransfected with two plasmids, imaged after 48 h at 25 °C
[3] = target: CAF1 with the OST4 membrane anchor (Drosophila); assay: ReLo relocalization assay (live-cell confocal fluorescence microscopy); pairwise; one partner anchored to the ER by yeast OST4 and fused to mCherry; S2R+ cells cotransfected, imaged after 48 h
[4] = target: CAF1 (Drosophila CCR4-NOT complex subunit) (Drosophila); assay: ReLo relocalization assay (live-cell confocal fluorescence microscopy); pairwise; one partner anchored to the plasma membrane by the PH domain of rat PLCδ1 and fused to mCherry, the other fused to EGFP/mEGFP; S2R+ cells cotransfected with two plasmids, imaged after 48 h at 25 °C
[5] = target: CAF1 (Drosophila CCR4-NOT complex subunit) (Drosophila); assay: ReLo relocalization assay (live-cell confocal fluorescence microscopy); pairwise; membrane anchor (PH or OST4) and which partner was anchored are not given; S2R+ cells cotransfected with two plasmids, imaged after 48 h at 25 °C
[6] = target: CCR4 (Drosophila CCR4-NOT complex subunit) (Drosophila); assay: as above

binding [5] | binding [6] | Molecule | other results
no binding | no binding | Bag-of-marbles (Bam) (protein, UniProt P22745 1-442) MLNARDVCPEGNDDQQLDHNFKQMEEHLALMVEGNENEDPRKATCEYEDTNEDGATCTSGVLSEIQENFGRLRLCDVTAPLLEFHGLDCLQQIQKRSRHFAFDGSPAKKSRSGGVLVTGPKQKQLQKENVWNRKSKGSASADNIEKLPITIEKLHMIGLHGDCLEHNAVLRLMNLFRSLHDHLTADLGFSRQNSMPSDYLFDMPVKSTMPKSLNVRYQLQVLCTKVERFLVQQRRTLEANRHFDFEKYDECDKLLKGFASYLDNFKLLLKPKMRNRNGNSGSNADKFHTQRMERLLIGLRDWIKAAHLSVHVFNWEMDLEHRYSGAMTESHKSLNERAILLSGAELRAAEARGISAEDLFIAQRYKLGGPIYCVLEQHEFLSALIANPETYFPPSVVAICGPQKLGAVSMEQPSASEEEFEETEEVPSSPPRHTGRVPRFRS | 
no binding | no binding | Cup (Drosophila) (protein, UniProt Q9VMA3 1-1117) MQMAEAEQENGAGALKIATNAGATDRPAHQQLPLPVEDQQDEVLTPAEKGKFEYPPPPPPPTPVQAPLATKATALNASQEHDDDEANSEKWEDPCAPPPPPPLPTSAFLATGLGYLKLPAFKLKDALEKAITKLEANKRTLKASPESSRSIKNKNVVALEMLPRRSNPETIGDGSMLASTSTAVMLQTKKPAVIVEMERRCKIINLLAKQNQILESISGEAIPMHGPSKHLHEDEGLTLQVLSARASTPYTQPSSMLSCTAVSCDLEHDSPRKQVASKEAVPEQQSSQVQQKRPPSTGIHKPGSLRAPKAVRPTTAPVVSSKPVKSYTRSRLMDIRNGMFNALMHRSKESFVMPRIATCDDIELEGRLRRMNIWRTSDGTRFRTRSTTANLNMNNNNNNECMPAFFKNKNKPNLISDESIIQSQPPQPQTEFQDPAIVNQRRIGSGRLNHSKWGYNDEDYHSYHNGKSQHMEEVNSKNSKNMTVLQFFDNGEISSQPQRRPNTPVMGMSINRSENDTLHSNESSEDLSRANENYVKRVMSGFLVVSKPKSRDVEDRHHRRYRNQNEEPEWFSCGPTSRLDTIELCGFDEDEEKMLKEGNKNHGLGETERETSKQKMDHKYKWTHAEPMGRSKYMPKHDTNNNHNVENMNNVMATEHQQQKEEKRPGSGRSFQFDKFNQSQQNYESSSYVNHQQPPQTQPQQMQQQSNTNTNNSKFMSFFANEGNSSSSSLNEFFKQAINQGHGNNPEQPKSLGHIGQMPSVDQLEAKWRRNSLNNVGETANKQTDNFQKLIGSLSSAKPQSQAVGYDAISNFIMQQQQYQQQQQKQHLIIQQQQQHTAFLASLQLKAILGRADTQLLLLRLTKGEISKHGLLVQLANPRLTDMDREAITAVLQFTNTQQQQQQHKQQLDMLSSTVIASQLQNLHNLAIVQQTLAARQQPQHNPQTQAPHQLSQEDLQAHANVIMRNAVMKRKIEEQTSKLINGGAKHQAQQQYLNRGQQRQARPDANSNALLHALISGGGNNHASGYPMNGQPQKHHSNLRFGDNQNFQSFESNQPHFATQYKQQYQQSQQQHPHQQPQQLNSLHQNNAGAVNSFNKAQMQAQSAISMLPNSGDEFH | 

The next lines start with the molecule.

Molecule | binding [5] | binding [6] | other results
Roquin (Drosophila) |  |  | binding [1]: no binding
CCR4 (Drosophila CCR4-NOT complex subunit) |  |  | binding [2]: no binding
NOT2 (Drosophila CCR4-NOT complex subunit) (protein, UniProt Q94547 1-585) MANLNFQQPPRSIANAALAGRTTGGFGGSSLAGHVTPTSGMFQTDFANSYPGTANYGQAPQQQQQQQQQPQLSPNRNAQLSVGGPAISSGNRNANLFGQRQFVERRAMQGLGSGPMSNMGNFMQTGRGGYGTGGGGGGPLNNFHVFGGGGGSDTSTPALLDPTEFPSLTNARGQNDQTLPQSNPLQPPGSKPYGNFFTSFGMVKQPTSEQSEFTMSNEDFPALPGTQNSDGTTNAVGSVAGTGGSGGASTENHLDGTEKPMNSIVVSGSASGSSGSNVGVVGGNGLGAVGSGIGGLAVGGGGGAGSSGGGGVGGNAASGVVGGSHVGLVGSNSGIGGVNSVPNSNAMMGVGGGLGSGSGSSGSGAGGEHLNDNSSNDKLVKSGVQTSPDGKVTNIPATMVNNQFGMVGLLTFIRAAETDPNLVTLSLGTDLTGLGLNLNSQESLHTTFAGPFVAQPCRAQDVEFNVPPEYLINFAIRDKLTAPVLKKLQEDLLFFLFYTNIGDMMQLMAAAELHSREWRYHVEEKIWITRIPGIDQYEKNGTKERGTFYYFDAQSWKRLSKVFQIDPEKLDKCPNISAFMNGQSV |  |  | binding [3]: no binding; binding [4]: no binding
